The list shows only some results of the screen, not a fair sample: it gathers tests that were run many times, whatever their T/C, doses with no T/C, and many T/C values between a quarter and a half above the control. Other doses and runs of a compound stand elsewhere. T/C: endpoint of the treated group in % of that of the vehicle group. Some entries give survivors of the animals treated and no T/C: the source holds a T/C of zero for them, seemingly a mark for toxic or unscored doses. Some survivor counts are full or nearly so, which does not show that the dose was tolerated: survival well below the control is almost never listed, so the zero probably covers shortened survival too. Counts of survivors are from the toxicity check (mostly the fifth day) where no day follows; animals may have died later. Schedule codes are those of the source, taken here to give the interval after Q, in days (D) or hours (H), and the number of doses after X. Some entries were tested several times; the results are listed from low to high. Some schedules carry Z or #; the key to these is not given. Some molecules as drawn cover several salts, stereoisomers or complexes of the source; a dose is that of the sample tested. For survival time, this PubChem deposit counts one and a half times the control or more as active, and values a quarter to a half above the control carry no call in these data; other NCI protocols may use other cut-offs.

For 28 compounds, survivor count and T/C results are on record in PubChem BioAssay AID248 (DTP/NCI, 2004).

This experiment concerns L1210 leukemia ip in BDF1 mice, survival T/C. The experiment can be described thus: NCI In Vivo Anticancer Drug Screen. Data for tumor model L1210 Leukemia (intraperitoneal) in B6D2F1 (BDF1) mice. The settings on record: T/C endpoint: mean survival time, higher T/C = longer survival.
[1] abbreviates: dose: 200.0 mg/kg/injection, schedule: Q01DX001 (ip), vehicle: saline.
Setting [2] is: dose: 200.0 mg/kg/injection, schedule: Q04DX003 (ip), vehicle: saline with Tween-80.
[3] abbreviates: dose: 400.0 mg/kg/injection, schedule: Q04DX003 (ip), vehicle: saline with Tween-80.
[4] abbreviates: dose: 400.0 mg/kg/injection, schedule: Q04DX002 (ip), vehicle: saline with Tween-80.
Setting [5] is: dose: 200.0 mg/kg/injection, schedule: Q04DX003 (ip), vehicle: Klucel (hydroxypropylcellulose) (HPC).
Setting [6] is: dose: 100.0 mg/kg/injection, schedule: Q04DX003 (ip), vehicle: saline.
[7] abbreviates: dose: 200.0 mg/kg/injection, schedule: Q04DX003 (ip), vehicle: saline.
[8] abbreviates: dose: 400.0 mg/kg/injection, schedule: Q04DX003 (ip), vehicle: saline.
Setting [9] is: dose: 400.0 mg/kg/injection, schedule: Q01DX009 (ip), vehicle: Klucel (hydroxypropylcellulose) (HPC).
The mark [10] stands for this setting: dose: 200.0 mg/kg/injection, schedule: Q01DX009 (ip), vehicle: Klucel (hydroxypropylcellulose) (HPC).
[11] abbreviates: dose: 100.0 mg/kg/injection, schedule: Q01DX009 (ip), vehicle: Klucel (hydroxypropylcellulose) (HPC).
The mark [12] stands for this setting: dose: 400.0 mg/kg/injection, schedule: Q01DX001 (ip), vehicle: Klucel (hydroxypropylcellulose) (HPC).

As to `O=c1sc2ccccc2n1CCSCCn1c(=S)sc2ccccc21`, under setting [1], the survivor count is 6 of 6.

`NCCCC1C2CCC(C2)C1CN` (stereo unspecified): the survivor count (dose: 200.0 mg/kg/injection, schedule: Q04DX002 (ip), vehicle: alcohol) is listed as 0 of 3 and the survivor count (dose: 400.0 mg/kg/injection, schedule: Q04DX002 (ip), vehicle: alcohol) is on record as 0 of 3.

As for `c1ccc(Sc2cccc3c(-c4ccccc4)c4cccc5c4c(c23)C[S+]5c2ccccc2)cc1` (stereo unspecified), the survivor count is, setting by setting: (dose: 100.0 mg/kg/injection, schedule: Q04DX003 (ip), vehicle: saline with Tween-80) 5 of 6; under setting [2], 0 of 6; under setting [3], 0 of 6.

With `CC(=O)c1ccc(N2CCN(C)CC2)cc1`, the survivor count is, setting by setting: under setting [1], 2 of 4; (dose: 400.0 mg/kg/injection, schedule: Q01DX001 (ip), vehicle: saline) 0 of 4.

`CC(O)CN1CCCCC1` (stereo unspecified): the survivor count by setting is: (dose: 400.0 mg/kg/injection, schedule: Q01DX001 (ip), vehicle: other) 2 of 4; under setting [3], 0 of 3.

As to `CCCCS.[Hg]`, the survivor count is, setting by setting: (dose: 25.0 mg/kg/injection, schedule: Q04DX002 (ip), vehicle: saline with Tween-80) 3 of 3; (dose: 50.0 mg/kg/injection, schedule: Q04DX002 (ip), vehicle: saline with Tween-80) 0 of 3; (dose: 100.0 mg/kg/injection, schedule: Q04DX002 (ip), vehicle: saline with Tween-80) 0 of 3; (dose: 200.0 mg/kg/injection, schedule: Q04DX002 (ip), vehicle: saline with Tween-80) 0 of 3; under setting [4], 0 of 3.

Regarding `O=C(COc1ccccc1)NCCBr`, the T/C under setting [5] is 126 % of control.

As for `S=C1NC(c2ccccc2)NC(c2ccccc2)S1` (stereo unspecified), the survivor count is, setting by setting: under setting [6], 6 of 6; under setting [7], 6 of 6; under setting [8], 6 of 6.

On to `CN(C)/C(=C\C(=O)c1ccccc1)c1ccccc1`, for which, under setting [2], the survivor count is reported as 3 of 3.

For the compound `CC(=O)NNS(=O)(=O)c1ccccc1`, the survivor count under setting [9] is listed as 0 of 6.

With `ClCc1ccccc1CCl`, the survivor count is 6 of 6 (dose: 20.0 mg/kg/injection, schedule: Q01DX015 (ip), vehicle: carboxymethylcellulose (CMC)) and 6 of 6 (dose: 40.0 mg/kg/injection, schedule: Q01DX015 (ip), vehicle: carboxymethylcellulose (CMC)).

As to `O=C(N1CCCCC1)C(Cl)(Cl)Cl`, the survivor count is given as 3 of 3 under setting [10] and 3 of 3 (dose: 400.0 mg/kg/injection, schedule: Q04DX002 (ip), vehicle: Klucel (hydroxypropylcellulose) (HPC)).

In the case of `COC(=O)Nc1cccc(NC(=O)C(=O)O)c1`, the survivor count under setting [3] is 2 of 6.

`Cc1ccc(S(=O)(=O)OCC(CO)(CO)[N+](=O)[O-])cc1`: under setting [8], the survivor count was 2 of 6.

As for `CN(C)c1ccc(/C=N/NC(=O)CNC(=O)c2ccc(Cl)cc2Cl)cc1`, for the setting “dose: 200.0 mg/kg/injection, schedule: Q01DX009 (ip), vehicle: saline with Tween-80”, the survivor count is 3 of 3.

As to `Cc1ccc(Cl)cc1NC(=S)N(C)C`, under setting [4], the survivor count was 1 of 3.

As to `CCCCCCCCCCCCCCCCCCNCCC#N`, the survivor count runs as follows: under setting [11], 6 of 6; under setting [10], 4 of 6; under setting [9], 4 of 6.

As to `C/C(=C\c1ccccc1Cl)[N+](=O)[O-]`, the survivor count under setting [9] is listed as 0 of 6.

Regarding `Cc1cn(O)c2nc(N)nc(=O)c-2n1`, the survivor count is given as 1 of 3 (dose: 200.0 mg/kg/injection, schedule: Q01DX001 (ip), vehicle: Klucel (hydroxypropylcellulose) (HPC)) and 1 of 3 under setting [12].

In the case of `COc1ccc2c(c1OC)C1(CCN(C)C)CC(=O)CCC1C=C2` (stereo unspecified), the survivor count reads like this: (dose: 50.0 mg/kg/injection, schedule: Q01DX009 (ip), vehicle: Klucel (hydroxypropylcellulose) (HPC)) 6 of 6; under setting [11], 6 of 6; under setting [5], 0 of 6; (dose: 400.0 mg/kg/injection, schedule: Q04DX003 (ip), vehicle: Klucel (hydroxypropylcellulose) (HPC)) 0 of 6.

Take `O=C(COc1ccccc1)Nc1cccnc1`: the survivor count under setting [12] is on record as 0 of 3.

Regarding `C/C=C\C(=O)OCC(C)CCC` (stereo unspecified), the survivor count under setting [4] is recorded as 2 of 3.

For `CCCOC(C)CC(c1ccccc1)(c1ccccc1)c1ccccc1` (stereo unspecified), the survivor count is, setting by setting: (dose: 50.0 mg/kg/injection, schedule: Q01DX009 (ip), vehicle: saline with Tween-80) 3 of 3; (dose: 100.0 mg/kg/injection, schedule: Q01DX009 (ip), vehicle: saline with Tween-80) 3 of 3.

As to `CC(=N\O)/C(=N\O)C(=O)c1ccccc1`, the survivor count (dose: 400.0 mg/kg/injection, schedule: Q01DX009 (ip), vehicle: saline with Tween-80) is listed as 3 of 6.

As to `C[N+]1(CC(=O)c2ccc(CCc3ccc(C(=O)C[N+]4(C)CCCCC4)cc3)cc2)CCCCC1`, the survivor count (dose: 3.12 mg/kg/injection, schedule: Q01DX009 (ip), vehicle: Klucel (hydroxypropylcellulose) (HPC)) is 6 of 6; the survivor count (dose: 4.6 mg/kg/injection, schedule: Q01DX009 (ip), vehicle: Klucel (hydroxypropylcellulose) (HPC)) was 3 of 6; the survivor count (dose: 6.25 mg/kg/injection, schedule: Q04DX002 (ip), vehicle: saline) was 2 of 3; the survivor count (dose: 7.0 mg/kg/injection, schedule: Q01DX009 (ip), vehicle: Klucel (hydroxypropylcellulose) (HPC)) was 1 of 6; the survivor count (dose: 10.0 mg/kg/injection, schedule: Q01DX009 (ip), vehicle: Klucel (hydroxypropylcellulose) (HPC)) is reported as 0 of 6; the survivor count (dose: 12.5 mg/kg/injection, schedule: Q04DX002 (ip), vehicle: saline) is 0 of 3 and 1 of 3. Besides, the survivor count (dose: 25.0 mg/kg/injection, schedule: Q04DX002 (ip), vehicle: saline) is 0 of 3; the survivor count (dose: 50.0 mg/kg/injection, schedule: Q04DX002 (ip), vehicle: saline) is 0 of 3; the survivor count (dose: 100.0 mg/kg/injection, schedule: Q04DX002 (ip), vehicle: saline) was 0 of 3; the survivor count (dose: 200.0 mg/kg/injection, schedule: Q04DX002 (ip), vehicle: saline) is 0 of 3; the survivor count (dose: 400.0 mg/kg/injection, schedule: Q04DX002 (ip), vehicle: saline) is 0 of 3.

Take `c1cc(N2CCOCC2)ccc1Cc1ccc(N2CCOCC2)cc1`: the survivor count under setting [9] was 4 of 6.

Regarding `NC(=S)N/N=C(\c1ccc(F)cc1)C1CC1`, the survivor count is, setting by setting: (dose: 4.0 mg/kg/injection, schedule: Q01DX Z (oral), vehicle: methylcellulose (MC)) 3 of 6; (dose: 15.0 mg/kg/injection, schedule: Q01DX Z (ip), vehicle: methylcellulose (MC)) 0 of 6; (dose: 16.0 mg/kg/injection, schedule: Q01DX Z (oral), vehicle: methylcellulose (MC)) 1 of 6; (dose: 30.0 mg/kg/injection, schedule: Q01DX Z (ip), vehicle: methylcellulose (MC)) 0 of 6; (dose: 32.0 mg/kg/injection, schedule: Q01DX Z (oral), vehicle: methylcellulose (MC)) 0 of 6; (dose: 60.0 mg/kg/injection, schedule: Q01DX Z (ip), vehicle: methylcellulose (MC)) 0 of 6. Under “dose: 120.0 mg/kg/injection, schedule: Q01DX Z (ip), vehicle: methylcellulose (MC)”, the survivor count was 0 of 6.

In the case of `CCCC[N+](CCCC)(CCCC)Cc1ccccc1`, the survivor count is on record as 0 of 6 under setting [6], 0 of 6 under setting [7] and 0 of 6 under setting [8].
